Patent publication US20240342215A1
Results are given in words; binding and its absence hold for the method and conditions named. Some binding calls cover weakened binding; strength is not graded here. Sequences can lack the tags named with a protein.

Target: T1, PE labeled CLL1-Fc reagent (Creative Biomart) (UniProt Q5QGZ9)
T1 sequence (PE label, looked up): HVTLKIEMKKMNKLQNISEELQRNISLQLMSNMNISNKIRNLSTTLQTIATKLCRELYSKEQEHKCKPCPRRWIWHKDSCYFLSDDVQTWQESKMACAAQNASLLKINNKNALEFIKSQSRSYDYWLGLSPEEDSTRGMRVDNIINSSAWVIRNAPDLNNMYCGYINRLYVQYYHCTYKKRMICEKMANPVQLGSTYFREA
Assay: flow cytometry; PE labeled CLL1-Fc staining of transduced T cells

binding: binds
B1: MAGEA4-reactive, HLA-A2-restricted TCR embedded with tandem VHHs targeting human CD33 and CLL1; TRB-P2A-CLL1-CD33.VHH-mLNK.1xG4S-TRA (SEQ ID NO: 97) (TCR)
TCR beta: DSGVTQTPKHLITATGQRVTLRCSPRSGDLSVYWYQQSLDQGLQFLIQYYNGEERAKGNILERFSAQQFPDLHSELNLSSLELGDSALYFCASSGGDGDEQFFGPGTRLTVLEDLKNVFPPEVAVFEPSKAEIAHTQKATLVCLATGFYPDHVELSWWVNGKEVHSGVSTDPQPLKEQPALNDSRYCLSSRLRVSATFWQNPRNHFRCQVQFYGLSENDEWTQDRAKPVTQIVSAEAWGRADCGITSASYHQGVLSATILYEILLGKATLYAVLVSALVLMAMVKRKDSRG
TCR alpha: EVQLVESGGGEVQPGGSLRLSCAASGFLFSIYDMNWYRQAPGKEREWVAGITNNGYSTAYAESVKGRFTISRDNAKNTIYLQMSSLRAEDTAVYYCHADLTKAYDVEYAWGQGTLVTVKPGGGGSGGGGSEVQLVESGGGEVQPGGSLRLSCAASRSSGIDVMGWYRQAPGKERELVAEISGVGDTNYAASLADRFTVSRDNAKNTVYLQMSSLRAEDTAVYYCNAHSFLDLVGAWGQGTLVTVKPLEKTGGGGSAQKITQTQPGMFVQEKEAVTLDCTYDTSDPSYGLFWYKQPSSGEMIFLIYQGSYDQQNATEGRYSLNFQKARKSANLVISASQLGDSAMYFCAMSGGYTGGFKTIFGAGTRLFVKANIQNPDPAVYQLRDSKSSDKSVCLFTDFDSQTNVSQSKDSDVYITDKTVLDMRSMDFKSNSAVAWSNKSDFACANAFNNSIIPEDTFFPSSDVPCDVKLVEKSFETDTNLNFQNLLVIVLRILLLKVAGFNLLMTLRLWSS
